Inconclusive means that the source gave no clear call. Such entries were picked first, then a sample of the others. Potencies of inconclusive entries are doubtful fits and often do not repeat. Calls of active or inactive are those of the source. The calls were made as follows: active = hit-call score of the fitted dose curve at least 0.9, where 1 is the maximum; inconclusive = response in the unintended direction; inactive = score below 0.9.
Target: human RAR-related Orphan Receptor beta (RORb), RORB (gene 6096) (UniProt Q92753)
Assay: ATG_RORb_TRANS: Attagene TRANS-FACTORIAL HepG2 Assay for human RAR-related Orphan Receptor beta (RORb) (AID 2283010);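 as to AC50: potency for increased reporter mRNA meaning activation of RORb-Gal4 chimera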
Experimental: ATG_TRANS is a cell-based, multiplexed-readout assay that uses HepG2, a human liver cell line, with measurements taken at 24 hours after chemical dosing in a 24-well plate.ATG_RORb_TRANS is one of 30 assay component(s) measured or calculated from the ATG_TRANS assay. It is designed to make measurements of mRNA induction, a form of inducible reporter, as detected with fluorescence intensity signals by Reverse transcription polymerase chain reaction (RT-PCR) and Capillary electrophoresis technology.Data from the assay component ATG_RORb_TRANS was analyzed into 1 assay endpoint. This assay endpoint, ATG_RORb_TRANS, was analyzed in the positive analysis fitting direction relative to DMSO as the negative control and baseline of activity. Using a type of inducible reporter, measures of mRNA for gain-of-signal activity can be used to understand the reporter gene at the transcription factor-level as they relate to the gene RORB. Furthermore, this assay endpoint can be referred to as a primary readout, because this assay has produced multiple assay endpoints where this one serves a reporter gene function. To generalize the intended target to other relatable targets, this assay endpoint is annotated to the nuclear receptor intended target family, where the subfamily is orphan.
Human liver HepG2 cells are transiently transfected with multiple reporter transcription units (MRTUs) in 6-well plates using FuGene 6 reagent (Roche; 3 ml FuGene/1 mg DNA). The MRTU constructs are regulated by a cis-regulating element (promoter). […] A major difference between the CIS and TRANS system is that in CIS activities of endogenous TFs are measured, whereas the TRANS assay evaluates changes in activities of exogenous, chimeric NR-Gal4 proteins. […] At the end of 24 hour incubation, total RNA was isolated using TriZol reagent (Invitrogen). The isolated RNA is then reverse-transcribed using oligo(dT) primer and Mo-MLV reverse transcriptase (Invitrogen) with DNAse I (Ambion) treatment for 30 min. The one-tenth of the produced cDNA was amplified by PCR using Taq DNA polymerase (Invitrogen) and two reporter sequence-specific primers. The PCR products were fluorescently labeled by primer extension with 6-arboxyfluorescein (6-FAM) 5'-labeled reporter sequence-specific primer (2 min at 95 C, 20 s at 68 C and 10 min at 72 C) and these products were digested with 5U of HpaI (New England Biolabs) for 2h at 37 C. The fragments were purified using Qiaquick PCR columns (Qiagen), analyzed on an ABI 3130xL genetic analyzer (Applied Biosystems) with peak positions identified by using a set of X-rhodamine (ROX)-labeled MapMarker1000 molecular weight standards (BioVentures). The raw capillary electrophoresis data was processed using Attagraph software (Attagene).

Protein sequences, listed by entry. Tags and fused reporters are not part of them. Lines headed by an entry give the natural chain unless they say otherwise; changes in a name come on top.
UniProt Q92753: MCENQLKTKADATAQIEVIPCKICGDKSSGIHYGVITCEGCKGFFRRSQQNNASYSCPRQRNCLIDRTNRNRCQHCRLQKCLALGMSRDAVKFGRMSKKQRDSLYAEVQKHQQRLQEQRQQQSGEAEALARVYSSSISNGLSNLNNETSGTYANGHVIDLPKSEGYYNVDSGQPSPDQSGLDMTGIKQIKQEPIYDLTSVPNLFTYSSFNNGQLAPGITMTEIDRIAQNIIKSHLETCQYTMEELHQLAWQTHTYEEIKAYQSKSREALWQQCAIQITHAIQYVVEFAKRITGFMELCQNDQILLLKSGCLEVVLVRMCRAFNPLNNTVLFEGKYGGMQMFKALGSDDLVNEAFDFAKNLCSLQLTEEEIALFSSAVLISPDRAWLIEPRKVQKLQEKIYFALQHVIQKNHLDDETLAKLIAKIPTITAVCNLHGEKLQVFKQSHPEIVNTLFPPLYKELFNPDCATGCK

For `Oc1ccc(C2(c3ccc(O)cc3)c3ccccc3-c3ccccc32)cc1`, which AC50 is on record?
The AC50 was inconclusive: 17.5 µM.

With `Oc1ccccc1Cl` as the compound, how does the AC50 read?
Its AC50 is inconclusive: 0.00914 µM.

With `CNC(=O)Oc1cc(C)c(SC)c(C)c1` as the compound, how does the outcome read?
Its outcome is “inactive”.

For `C=CC(N)=O`, which outcome is on record?
Its outcome is “inactive”.

For `COC(=O)COc1ccc(Cl)cc1Cl`, which outcome is on record?
Its outcome is “inactive”.

With `CCOC(=O)N(C)N=O` as the compound, how does the AC50 read?
Its AC50 is inconclusive: 180 µM.

How did the AC50 turn out when `CN(C)P(=O)(N(C)C)N(C)C` was run?
The AC50 was inconclusive: 100 µM.

For `C[C@]12CC[C@@H](O)C[C@@H]1CC[C@@H]1[C@@H]2CC[C@]2(C)C(=O)CC[C@@H]12`, which outcome is on record?
Its outcome is “inactive”.

Which AC50 does the source give for `CCCCC(C#N)(Cn1cncn1)c1ccc(Cl)cc1` (stereo not given) here?
Its AC50 is inconclusive: 90.1 µM.

For `Nc1c(Cl)c(Cl)c(Cl)c(Cl)c1Cl`, which AC50 is on record?
The AC50 was inconclusive: 100 µM.

Which AC50 does the source give for `Clc1ccc(C(Cl)(Cl)Cl)cc1` here?
Its AC50 is inconclusive: 100 µM.

For `CCCCOCC1CO1` (stereo not given), which AC50 is on record?
The AC50 was inconclusive: 100 µM.

How did the outcome turn out when `CCOc1nc(C(Cl)(Cl)Cl)ns1` was run?
Its outcome is “inactive”.

For `O=C(N[C@H](c1ccccc1)[C@@H]1CN2CCC1CC2)c1c(Cl)ccc(C(F)(F)F)c1Cl`, which AC50 is on record?
Its AC50 is inconclusive: 2.79 µM.

Which AC50 does the source give for `Cc1ccccc1CO[C@@H]1C[C@@]2(C(C)C)CC[C@]1(C)O2` here?
The AC50 was inconclusive: 0.525 µM.

`CSC(=O)c1c(C(F)F)nc(C(F)(F)F)c(C(=O)SC)c1CC(C)C` was tested. Which outcome did it give?
The outcome was “inactive”.

For `CC(C)(C1CCC(O)CC1)C1CCC(O)CC1` (stereo not given), which AC50 is on record?
The AC50 was inconclusive: 1.11 µM.

How did the AC50 turn out when `Nc1cc(Cl)cc(Cl)c1` was run?
The AC50 was inconclusive: 70.8 µM.

`N#Cc1c[nH]cc1-c1cccc2c1OC(F)(F)O2` was tested. Which AC50 did it give?
The AC50 was inconclusive: 29 µM.

`Cc1ccccc1OP(=O)(Oc1ccccc1C)Oc1ccccc1C` was tested. Which AC50 did it give?
Its AC50 is inconclusive: 47.9 µM.

How did the outcome turn out when `COP(=O)(OC)O/C(C)=C/C(=O)N(C)C` was run?
The outcome was “inactive”.

Which AC50 does the source give for `O=[N+]([O-])c1c(Cl)c(Cl)cc(Cl)c1Cl` here?
Its AC50 is inconclusive: 7.87 µM.

With `CC(C)(c1cc(Cl)c(O)c(Cl)c1)c1cc(Cl)c(O)c(Cl)c1` as the compound, how does the AC50 read?
The AC50 was inconclusive: 33.4 µM.

For `O=c1ccc(=O)[nH][nH]1`, which outcome is on record?
The outcome was “inactive”.

With `O=C(OC1CCCCC1)c1ccccc1C(=O)OC1CCCCC1` as the compound, how does the AC50 read?
The AC50 was inconclusive: 3.23 µM.

With `ClCCCCCCCl` as the compound, how does the outcome read?
The outcome was “inactive”.

How did the outcome turn out when `CC(Cc1ccc(C(C)(C)C)cc1)CN1C[C@@H](C)O[C@@H](C)C1` (stereo not given in full) was run?
The outcome was “inactive”.

How did the outcome turn out when `CN(C)CCN(C)C` was run?
The outcome was “inactive”.

And the AC50?
The AC50 was inconclusive: 1.76 µM.

`O=C1C=CC(=O)C=C1` was tested. Which outcome did it give?
The outcome was “inactive”.

Which AC50 does the source give for `c1cc[c]([Sb]([c]2ccccc2)[c]2ccccc2)cc1` here?
Its AC50 is inconclusive: 100 µM.

`O=C(O)CCl` was tested. Which outcome did it give?
Its outcome is “inactive”.

`CC(=NC#N)N(C)Cc1ccc(Cl)nc1` was tested. Which outcome did it give?
Its outcome is “inactive”.

Source: PubChem BioAssay (EPA / NIEHS)
